Laboratory results taken from article PMC4242536, “Cell Surface Protein Disulfide Isomerase Regulates Natriuretic Peptide Generation of Cyclic Guanosine Monophosphate” (PLoS ONE, 2014).
These are yes or no findings as the source states them, for the method shown. Binding can be weak; no strength is given.

Molecular target: Protein disulfide isomerase (PDI), purified full-length protein
Experiment: SPR; Biacore T200, 25°C; PDI amine-coupled to a CM5 chip; ANP, BNP or CNP injected at 40 ul/min for 30 s, 150 s dissociation; running buffer 150 mM NaCl, 0.005% Polysorbate 20, 10 mM HEPES, pH 7.4; peptides 0-1600 nM; both purified

B1: C-type natriuretic peptide (CNP) (peptide, UniProt P23582 105-126)
peptide: GLSKGCFGLKLDRIGSMSGLGC
binding: binds weakly
